From paper PMC9161444 (Langmuir, 2022)
“And” between values parts separate entries of the source, which are not always exact repeats. Identical values can stand only once. For some of these results: Strings that start with PEPTIDE1 are HELM notation: dots part the residues, brackets hold end groups and non-standard residues.

How the values were obtained:
[1] = general procedure: Fmoc solid-phase peptide synthesis; Rink-amide resin; OXYMA/DIC; conditions: whole synthesis, 220 nm
[2] = Lipid monolayer model, surface pressure change (Langmuir trough); conditions: spread between DPPG and DPPC monolayer interactions
[3] = Selective index and averaged ratios from MIC, EC50 and CAC; conditions: SI = sum of EC50 (HDFa, NIH/3T3, hRBC) / sum of MIC (E. coli, S. aureus, C. albicans)

Compound | final HPLC purity [1] [%] | δ[Δπ] = ΔπDPPG – ΔπDPPC [2] | selective index [3]
PEPTIDE1{[Myr].K.K.G.G.I.I.[am]}$$$$V2.0 | > 95 |  | 
CD3(CD2)12CO-KKGGII-NH2 | > 95 |  | 
CCCCCCCCCCCC[N+](C)(C)C.[Br-] [C12TAB, dodecyltrimethylammonium bromide] |  | 5 mN/m and 5 ± 4 mN/m | 2.0 ± 0.9
